Data published in the supplement of paper PMC10849652.
The other results are listed elsewhere or left out.

The chains behind the UniProt entries cited, without tags or fusion partners. Where a name states a change or a piece, a line headed by the entry shows the natural chain unless it says otherwise.
UniProt P24752: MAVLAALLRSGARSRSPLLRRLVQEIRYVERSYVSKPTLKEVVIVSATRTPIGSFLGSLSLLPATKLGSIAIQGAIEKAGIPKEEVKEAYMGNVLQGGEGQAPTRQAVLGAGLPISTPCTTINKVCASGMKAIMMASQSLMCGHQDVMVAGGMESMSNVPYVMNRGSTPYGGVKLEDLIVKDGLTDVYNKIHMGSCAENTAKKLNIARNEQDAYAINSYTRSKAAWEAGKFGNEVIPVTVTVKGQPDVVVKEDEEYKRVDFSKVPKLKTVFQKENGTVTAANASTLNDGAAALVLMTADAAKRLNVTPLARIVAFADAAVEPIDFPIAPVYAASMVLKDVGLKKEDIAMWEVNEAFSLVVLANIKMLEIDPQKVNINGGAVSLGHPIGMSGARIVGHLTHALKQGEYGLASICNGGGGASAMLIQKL
UniProt P16219: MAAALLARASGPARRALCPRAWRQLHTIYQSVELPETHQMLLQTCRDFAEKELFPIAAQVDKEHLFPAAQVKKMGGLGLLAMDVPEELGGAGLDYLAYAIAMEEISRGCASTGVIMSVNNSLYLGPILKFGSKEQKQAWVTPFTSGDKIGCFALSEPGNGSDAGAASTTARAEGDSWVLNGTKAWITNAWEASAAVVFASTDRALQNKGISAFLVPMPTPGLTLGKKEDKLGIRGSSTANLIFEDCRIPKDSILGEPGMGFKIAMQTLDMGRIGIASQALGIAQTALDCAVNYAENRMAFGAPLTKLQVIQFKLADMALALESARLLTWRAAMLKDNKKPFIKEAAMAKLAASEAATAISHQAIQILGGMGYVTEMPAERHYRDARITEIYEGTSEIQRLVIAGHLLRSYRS
UniProt O14672: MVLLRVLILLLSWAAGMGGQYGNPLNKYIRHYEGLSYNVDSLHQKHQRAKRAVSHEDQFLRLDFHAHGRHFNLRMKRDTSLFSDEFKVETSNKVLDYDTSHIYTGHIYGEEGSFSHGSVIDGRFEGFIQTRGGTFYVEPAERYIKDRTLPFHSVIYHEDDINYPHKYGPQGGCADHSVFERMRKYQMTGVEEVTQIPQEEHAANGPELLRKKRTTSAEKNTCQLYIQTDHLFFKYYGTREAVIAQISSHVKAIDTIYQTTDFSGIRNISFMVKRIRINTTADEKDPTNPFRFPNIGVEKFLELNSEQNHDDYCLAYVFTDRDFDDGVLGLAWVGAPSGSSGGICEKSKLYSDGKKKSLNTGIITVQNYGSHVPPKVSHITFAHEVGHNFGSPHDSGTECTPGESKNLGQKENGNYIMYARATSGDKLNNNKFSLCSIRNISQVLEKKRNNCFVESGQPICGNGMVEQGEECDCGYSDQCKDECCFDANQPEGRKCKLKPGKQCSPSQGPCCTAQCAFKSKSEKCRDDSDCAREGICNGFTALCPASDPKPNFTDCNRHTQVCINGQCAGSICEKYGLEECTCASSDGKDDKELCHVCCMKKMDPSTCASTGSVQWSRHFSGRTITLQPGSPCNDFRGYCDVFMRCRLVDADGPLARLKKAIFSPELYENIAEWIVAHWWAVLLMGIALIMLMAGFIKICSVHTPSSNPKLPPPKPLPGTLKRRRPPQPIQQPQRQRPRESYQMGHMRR
UniProt Q8N2K0: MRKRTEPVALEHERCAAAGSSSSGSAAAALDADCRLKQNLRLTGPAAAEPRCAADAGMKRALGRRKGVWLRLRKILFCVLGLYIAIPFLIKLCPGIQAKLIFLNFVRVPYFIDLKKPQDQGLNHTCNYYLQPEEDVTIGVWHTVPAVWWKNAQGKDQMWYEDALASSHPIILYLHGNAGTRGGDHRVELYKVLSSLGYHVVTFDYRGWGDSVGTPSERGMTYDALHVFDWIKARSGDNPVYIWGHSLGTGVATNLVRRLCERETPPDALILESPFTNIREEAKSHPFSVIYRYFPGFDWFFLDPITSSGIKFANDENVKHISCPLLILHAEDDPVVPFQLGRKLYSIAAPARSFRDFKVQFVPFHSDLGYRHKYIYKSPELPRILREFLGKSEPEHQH
UniProt P78536: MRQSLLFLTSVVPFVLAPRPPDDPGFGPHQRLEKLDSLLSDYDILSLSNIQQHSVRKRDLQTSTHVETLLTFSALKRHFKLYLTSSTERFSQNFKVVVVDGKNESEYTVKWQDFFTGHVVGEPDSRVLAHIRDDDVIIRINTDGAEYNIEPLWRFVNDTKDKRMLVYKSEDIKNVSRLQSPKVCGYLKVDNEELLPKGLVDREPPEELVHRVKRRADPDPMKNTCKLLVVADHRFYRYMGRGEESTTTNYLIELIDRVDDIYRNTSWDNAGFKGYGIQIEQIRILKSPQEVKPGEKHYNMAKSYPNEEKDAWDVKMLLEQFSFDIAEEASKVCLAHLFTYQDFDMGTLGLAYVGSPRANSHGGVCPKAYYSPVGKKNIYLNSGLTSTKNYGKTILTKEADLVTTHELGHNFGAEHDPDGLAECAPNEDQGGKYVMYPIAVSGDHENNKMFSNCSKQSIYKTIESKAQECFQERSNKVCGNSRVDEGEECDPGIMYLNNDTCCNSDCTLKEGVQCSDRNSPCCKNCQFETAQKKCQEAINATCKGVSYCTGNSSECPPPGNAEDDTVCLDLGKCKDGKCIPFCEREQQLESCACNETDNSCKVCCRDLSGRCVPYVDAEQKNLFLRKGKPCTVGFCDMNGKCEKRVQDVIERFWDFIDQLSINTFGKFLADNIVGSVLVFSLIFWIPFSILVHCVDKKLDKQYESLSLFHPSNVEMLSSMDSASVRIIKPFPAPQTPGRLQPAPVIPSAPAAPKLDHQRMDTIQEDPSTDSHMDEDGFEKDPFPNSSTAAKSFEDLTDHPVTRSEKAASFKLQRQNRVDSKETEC
UniProt P01023, whole entry, looked up: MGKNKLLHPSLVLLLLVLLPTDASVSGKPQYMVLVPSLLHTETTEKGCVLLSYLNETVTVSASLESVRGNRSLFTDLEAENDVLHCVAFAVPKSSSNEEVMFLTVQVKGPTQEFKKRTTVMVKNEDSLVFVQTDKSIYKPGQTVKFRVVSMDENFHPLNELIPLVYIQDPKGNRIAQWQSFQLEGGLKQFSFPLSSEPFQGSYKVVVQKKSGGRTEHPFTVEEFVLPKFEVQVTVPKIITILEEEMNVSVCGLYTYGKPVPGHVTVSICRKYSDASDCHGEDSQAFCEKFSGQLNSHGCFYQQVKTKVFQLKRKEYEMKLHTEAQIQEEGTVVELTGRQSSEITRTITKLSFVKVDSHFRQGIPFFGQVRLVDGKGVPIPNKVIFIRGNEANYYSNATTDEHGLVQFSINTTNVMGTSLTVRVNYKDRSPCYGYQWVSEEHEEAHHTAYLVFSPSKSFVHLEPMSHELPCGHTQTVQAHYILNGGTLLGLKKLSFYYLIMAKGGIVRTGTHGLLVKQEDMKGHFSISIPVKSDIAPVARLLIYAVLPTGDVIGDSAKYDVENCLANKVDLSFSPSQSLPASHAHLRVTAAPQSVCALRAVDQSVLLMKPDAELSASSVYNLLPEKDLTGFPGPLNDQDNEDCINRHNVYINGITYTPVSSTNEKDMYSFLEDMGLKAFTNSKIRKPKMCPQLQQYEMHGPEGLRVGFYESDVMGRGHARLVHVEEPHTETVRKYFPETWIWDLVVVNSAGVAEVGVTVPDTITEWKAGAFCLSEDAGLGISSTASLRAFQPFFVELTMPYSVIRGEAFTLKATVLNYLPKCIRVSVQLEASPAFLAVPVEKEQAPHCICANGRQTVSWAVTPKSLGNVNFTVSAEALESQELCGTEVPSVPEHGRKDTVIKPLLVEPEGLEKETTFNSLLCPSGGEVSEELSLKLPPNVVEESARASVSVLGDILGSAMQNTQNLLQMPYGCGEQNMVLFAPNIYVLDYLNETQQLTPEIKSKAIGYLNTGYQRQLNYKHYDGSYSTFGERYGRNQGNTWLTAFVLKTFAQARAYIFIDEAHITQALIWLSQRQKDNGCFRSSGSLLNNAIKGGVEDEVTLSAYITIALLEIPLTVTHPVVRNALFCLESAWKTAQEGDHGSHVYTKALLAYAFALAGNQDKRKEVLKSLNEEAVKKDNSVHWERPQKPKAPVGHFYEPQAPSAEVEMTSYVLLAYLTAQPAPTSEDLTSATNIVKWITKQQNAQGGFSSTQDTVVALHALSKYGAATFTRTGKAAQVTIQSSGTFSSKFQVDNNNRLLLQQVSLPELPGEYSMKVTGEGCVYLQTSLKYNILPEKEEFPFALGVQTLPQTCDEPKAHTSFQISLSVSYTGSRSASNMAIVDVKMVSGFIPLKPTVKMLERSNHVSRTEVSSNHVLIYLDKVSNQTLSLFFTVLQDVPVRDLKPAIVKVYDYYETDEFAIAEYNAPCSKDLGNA
UniProt O14734: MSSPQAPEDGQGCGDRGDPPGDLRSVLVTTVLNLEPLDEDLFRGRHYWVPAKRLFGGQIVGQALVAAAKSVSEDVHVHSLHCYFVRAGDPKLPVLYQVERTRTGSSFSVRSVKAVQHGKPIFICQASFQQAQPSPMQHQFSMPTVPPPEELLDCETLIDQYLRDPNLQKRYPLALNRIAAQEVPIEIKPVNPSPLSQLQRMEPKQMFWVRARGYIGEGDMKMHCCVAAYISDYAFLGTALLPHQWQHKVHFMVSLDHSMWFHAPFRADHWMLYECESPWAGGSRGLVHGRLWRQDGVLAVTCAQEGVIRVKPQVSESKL
UniProt O15439: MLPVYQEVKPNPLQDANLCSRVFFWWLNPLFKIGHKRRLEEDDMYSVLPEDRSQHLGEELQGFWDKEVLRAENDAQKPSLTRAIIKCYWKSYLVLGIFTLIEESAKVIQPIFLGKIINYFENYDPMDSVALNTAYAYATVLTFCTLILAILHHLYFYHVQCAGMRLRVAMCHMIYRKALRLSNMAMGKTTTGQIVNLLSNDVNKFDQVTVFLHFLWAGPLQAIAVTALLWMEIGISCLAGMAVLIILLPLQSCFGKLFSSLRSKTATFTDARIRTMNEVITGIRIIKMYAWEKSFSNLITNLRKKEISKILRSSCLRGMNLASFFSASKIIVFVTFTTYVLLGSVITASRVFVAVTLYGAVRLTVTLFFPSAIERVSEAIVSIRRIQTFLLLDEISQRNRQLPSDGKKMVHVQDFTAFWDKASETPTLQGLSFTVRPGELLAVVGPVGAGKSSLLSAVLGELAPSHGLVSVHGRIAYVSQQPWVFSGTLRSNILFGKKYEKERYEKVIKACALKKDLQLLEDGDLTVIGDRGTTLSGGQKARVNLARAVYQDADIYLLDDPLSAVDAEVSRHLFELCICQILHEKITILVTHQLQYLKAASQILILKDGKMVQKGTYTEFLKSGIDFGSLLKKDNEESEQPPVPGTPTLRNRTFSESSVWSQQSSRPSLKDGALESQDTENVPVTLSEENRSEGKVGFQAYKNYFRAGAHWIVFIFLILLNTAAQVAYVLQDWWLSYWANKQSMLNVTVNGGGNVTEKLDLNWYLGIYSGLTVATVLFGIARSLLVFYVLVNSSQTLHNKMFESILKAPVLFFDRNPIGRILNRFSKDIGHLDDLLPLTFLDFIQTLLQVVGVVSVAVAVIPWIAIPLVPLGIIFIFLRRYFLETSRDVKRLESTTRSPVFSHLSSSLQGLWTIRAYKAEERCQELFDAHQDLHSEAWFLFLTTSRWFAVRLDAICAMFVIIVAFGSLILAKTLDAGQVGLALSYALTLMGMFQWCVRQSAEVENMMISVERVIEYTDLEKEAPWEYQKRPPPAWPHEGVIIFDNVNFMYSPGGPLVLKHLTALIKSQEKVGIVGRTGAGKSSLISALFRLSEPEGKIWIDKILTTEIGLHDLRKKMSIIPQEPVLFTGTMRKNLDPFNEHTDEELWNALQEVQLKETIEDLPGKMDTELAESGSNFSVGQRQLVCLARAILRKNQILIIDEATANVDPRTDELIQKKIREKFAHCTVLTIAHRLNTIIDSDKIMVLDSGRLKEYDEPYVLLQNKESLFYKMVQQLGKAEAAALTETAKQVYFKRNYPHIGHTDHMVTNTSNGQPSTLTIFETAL
UniProt Q9UKU7: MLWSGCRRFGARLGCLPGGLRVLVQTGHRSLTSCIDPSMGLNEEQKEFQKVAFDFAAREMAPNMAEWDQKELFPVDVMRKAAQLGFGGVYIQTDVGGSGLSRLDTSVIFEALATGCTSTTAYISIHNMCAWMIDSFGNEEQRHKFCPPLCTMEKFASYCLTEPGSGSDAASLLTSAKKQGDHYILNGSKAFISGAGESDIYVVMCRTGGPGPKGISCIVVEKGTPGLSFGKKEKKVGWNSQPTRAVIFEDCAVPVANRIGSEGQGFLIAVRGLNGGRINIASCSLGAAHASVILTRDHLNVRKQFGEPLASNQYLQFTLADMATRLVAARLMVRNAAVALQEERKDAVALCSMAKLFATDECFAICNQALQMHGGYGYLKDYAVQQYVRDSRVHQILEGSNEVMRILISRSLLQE

These targets were tested with CS(=O)(=O)c1ccc(-c2cnc(N)c(C(=O)Nc3ccccc3)n2)cc1 (assay: log2 fold change, soluble protein after heating vs DMSO (PISA); higher = thermal stabilisation; K562 cells, 10 uM, 30 min; active = over 0.2 and 3.5 SD of the protein, either way, in both replicates (recomputed)).
Method in brief: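 Thermal stability values are relative to control samples and come from duplicates. They are expressed as log2 fold changes. For measurement, K562 cells (2×10^6 cells/mL) received 10 μM compound for 30 min, and aliquots were heated for 3 min over 48°C-58°C, pooled, and extracted at 4°C in PBS with 0.5% NP-40. Soluble protein, the supernatant after 21,000xg for 90 min, was quantified by TMTpro 16plex LC-MS/MS with equalised channel sums.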

Target	log2 fold change
ACACA isoform 4 (UniProt Q13085)	inactive: 0.049
ACSS2 isoform 2 (UniProt Q9NR19)	inactive: 0.019
ACOX1 isoform 2 (UniProt Q15067)	inactive: 0.004
ACAT1 (UniProt P24752)	inactive: -0.007
ACTR2 (UniProt P61160)	inactive: 0.022
ACADS (UniProt P16219)	inactive: 0.028
ADAM10 (UniProt O14672)	inactive: 0.052
ABHD12 isoform 2 (UniProt Q8N2K0)	inactive: -0.015
ADAR isoform 4 (UniProt P55265)	inactive: -0.097
ACTR10 (UniProt Q9NZ32)	inactive: -0.015
ABLIM1 (UniProt O14639)	inactive: -0.027
ABCF3 (UniProt Q9NUQ8)	inactive: 0.085
ABRAXAS2 (UniProt Q15018)	inactive: 0.012
ACADL (UniProt P28330)	inactive: -0.162
ACTA1 (UniProt P68133)	inactive: -0.022
ADAM17 (UniProt P78536)	inactive: 0.035
A2M (UniProt P01023)	inactive: -0.161
ACADSB (UniProt P45954)	inactive: 0.115
ACOT8 (UniProt O14734)	inactive: 0.008
ABCC4 (UniProt O15439)	inactive: 0.062
ACAD8 (UniProt Q9UKU7)	inactive: -0.008
ACY1 (UniProt Q03154)	inactive: -0.034

Taken from above.
Value of ABCC4 (UniProt O15439) under log2 fold change: inactive: 0.062
Value of ACADS (UniProt P16219) under log2 fold change: inactive: 0.028
